In US12527835B2, “Brevican-binding peptides for brain tumor imaging” (The Brigham and Women's Hospital, Inc., priority 2018, dated 2026):
pKd: −log10 of the molar value. Not every detail of the peptide structures is certain; ends, links or a residue may be inferred.

Target: T1, recombinant BΔg protein (deglycosylated brevican) (Homo sapiens, UniProt Q96GW7)
T1 construct: purchased R&D Systems 4009-BC-050
T1 sequence (Q96GW7 23-911): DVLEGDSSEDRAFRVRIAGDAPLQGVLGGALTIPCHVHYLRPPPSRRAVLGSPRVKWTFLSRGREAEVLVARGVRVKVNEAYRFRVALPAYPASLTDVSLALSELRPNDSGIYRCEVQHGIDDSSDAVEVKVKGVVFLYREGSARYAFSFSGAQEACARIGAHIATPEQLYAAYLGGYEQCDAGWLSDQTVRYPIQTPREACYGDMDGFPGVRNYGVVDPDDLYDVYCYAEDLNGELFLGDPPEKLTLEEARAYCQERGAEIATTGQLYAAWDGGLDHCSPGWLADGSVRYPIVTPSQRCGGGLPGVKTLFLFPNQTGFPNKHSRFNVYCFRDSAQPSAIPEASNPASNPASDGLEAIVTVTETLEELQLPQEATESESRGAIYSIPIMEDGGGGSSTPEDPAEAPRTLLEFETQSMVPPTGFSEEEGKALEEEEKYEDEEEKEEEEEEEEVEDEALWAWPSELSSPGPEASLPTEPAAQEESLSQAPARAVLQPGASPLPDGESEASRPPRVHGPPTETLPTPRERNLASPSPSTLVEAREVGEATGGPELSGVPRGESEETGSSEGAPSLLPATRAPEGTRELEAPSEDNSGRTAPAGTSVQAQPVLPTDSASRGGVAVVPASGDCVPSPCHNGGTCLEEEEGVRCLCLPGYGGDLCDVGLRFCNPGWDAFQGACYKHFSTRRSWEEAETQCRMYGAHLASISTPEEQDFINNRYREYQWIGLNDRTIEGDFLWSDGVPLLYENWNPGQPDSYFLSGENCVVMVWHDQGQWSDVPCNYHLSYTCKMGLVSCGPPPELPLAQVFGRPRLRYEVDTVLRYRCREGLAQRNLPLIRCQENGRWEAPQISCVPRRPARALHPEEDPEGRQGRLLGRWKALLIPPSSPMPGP
Assay: Octet steady state binding affinity to recombinant BΔg
Details: steady state analysis, Octet RED, peptide up to 10 μM; read-out: KD (dissociation constant) to BΔg protein
Protocol: A ForteBio OctetRed384 instrument was used to study the binding kinetics of each peptide to recombinant human brevican (re-suspended in PBS and 0.1 mM EDTA, pH 6.8). The brevican protein was deglycosylated prior to experimental use in water+0.05% tween, PI, sialidase, 0-glycosidase, N-glycosidase in sodium acetate [200 mM], NaCl [250 mM], Tris-HCl [200 mM], pH 7.5.) in the presence of protease inhibitor overnight at 4° C. (this entire composition will be referred to as ‘de-glycosylation buffer’). […] The final volume for all the solutions was 80 μl/well. Assays were performed at 30° C. in solid black 384-well plates (Geiger Bio-One). Prior to beginning, Ni-NTA biosensors were soaked for 10 min in working buffer. Before loading the protein onto each biosensor, a baseline was established in working buffer for 60 s. Deglycosylated brevican (50 μg/ml BΔg; His-tagged) was loaded on the surface of each biosensors for 180 s. […] Binding affinity of each peptide was assessed through steady state analysis, where the response unit was plotted over peptide concentration. All data was plotted and curves were fitted using the non-linear ‘one-site specific binding’ fit, and the dissociation constant (KD) value was calculated using the GraphPad Prism software. […]

Compound `CC(C)[C@@H](NC(=O)[C@@H](Cc1c[nH]cn1)NC(=O)CNC(=O)[C@@H](Cc1c[nH]c2ccccc12)NC(=O)[C@@H](CCCCN)NC(=O)[C@H](N)[C@H](C)O)C(=O)N[C@H](CC(N)=O)C(=O)N[C@H](CCCCN)C(N)=O` [BTP-7, TKWGHVNK] has a pKd of 6.59.
